Experimental findings from patent US20170368169A1 are described below.

Assay [1] deals with human IL2Rα (generated from SEQ ID NO: 182) (human). Nature of the assay: ELISA. A general note: In an ELISA, binding on a coated surface is turned into a signal by an enzyme label.
The target in assay [2] is human PD1L1 (generated from SEQ ID NO: 178) (human). Nature of the assay: ELISA.

No constants are given. Whether binding was seen depends on the method and setting. Some entries that bind do so weakly or less than the wild type.

Take “Multispecific molecule 8 (from UniProt P0DOX7 1-214; P0DOX8 1-216)”: the binding entry in assay [1] and in assay [2] was “binds” in each case.
With “Multispecific molecule 9 (from UniProt P0DOX7 1-214; P0DOX5 1-449; P0DOX8 1-216)”, the binding result in assay [2] is reported as “binds”.
As to “Multispecific molecule 10 (from UniProt P0DOX7 1-214; P0DOX8 1-216)”, the binding entry in assay [1] and in assay [2] was “binds” throughout.
Consider “Multispecific molecule 11 (from UniProt P0DOX7 1-214; P0DOX5 1-449; P0DOX8 1-216)”, for which the binding entry in assay [2] is given as “binds”.
With “Multispecific molecule 12 (from UniProt P0DOX7 1-214; P0DOX8 1-216)”, the binding entry in assay [1] and in assay [2] was “binds” in each case.
